Where a name gives a salt, the structure may show the parent alone. Some of the results follow. Repeats in this data set agree poorly, so a single value says little.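 Screen of FDA-approved drugs, each combined with colistin at one-eighth of its MIC, against a multidrug-resistant mcr-1-positive clinical E. coli isolate; growth read as OD600 after 24 h. Bacteria without drug were the growth control and plain broth the blank. A combination counted as active when OD600 fell below 0.2.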
Test system: Escherichia coli 42 (mcr-1-positive clinical isolate)
Assay: OD600 after 24 h growth with compound plus colistin (absorbance units (OD600)); higher = more bacterial growth (less inhibition)
Settings: first compound 25 µM; colistin concentration 0.5 ug/mL; incubation time 24 h; 37 °C

OD600, inactive:
CC(C(=O)O)c1ccc(-c2ccccc2)c(F)c1 (centres undefined) [Flurbiprofen] + CCC(C)CCCC(=O)N[C@@H](CCN)C(=O)N[C@H](C(=O)N[C@@H](CCN)C(=O)N[C@H]1CCNC(=O)[C@H]([C@@H](C)O)NC(=O)[C@H](CCN)NC(=O)[C@H](CCN)NC(=O)[C@H](CC(C)C)NC(=O)[C@@H](CC(C)C)NC(=O)[C@H](CCN)NC1=O)[C@@H](C)O [colistin] 0.785
CNCC(O)c1ccc(O)c(O)c1 (racemic) [DL-Adrenaline Hydrochloride] + CCC(C)CCCC(=O)N[C@@H](CCN)C(=O)N[C@H](C(=O)N[C@@H](CCN)C(=O)N[C@H]1CCNC(=O)[C@H]([C@@H](C)O)NC(=O)[C@H](CCN)NC(=O)[C@H](CCN)NC(=O)[C@H](CC(C)C)NC(=O)[C@@H](CC(C)C)NC(=O)[C@H](CCN)NC1=O)[C@@H](C)O [colistin] 1.29
O=[Si]=O [Sodium montmorillonite] + CCC(C)CCCC(=O)N[C@@H](CCN)C(=O)N[C@H](C(=O)N[C@@H](CCN)C(=O)N[C@H]1CCNC(=O)[C@H]([C@@H](C)O)NC(=O)[C@H](CCN)NC(=O)[C@H](CCN)NC(=O)[C@H](CC(C)C)NC(=O)[C@@H](CC(C)C)NC(=O)[C@H](CCN)NC1=O)[C@@H](C)O [colistin] 1.07
Fc1ccc([C@@H]2CCNC[C@H]2COc2ccc3c(c2)OCO3)cc1 [Paroxetine hydrochloride] + CCC(C)CCCC(=O)N[C@@H](CCN)C(=O)N[C@H](C(=O)N[C@@H](CCN)C(=O)N[C@H]1CCNC(=O)[C@H]([C@@H](C)O)NC(=O)[C@H](CCN)NC(=O)[C@H](CCN)NC(=O)[C@H](CC(C)C)NC(=O)[C@@H](CC(C)C)NC(=O)[C@H](CCN)NC1=O)[C@@H](C)O [colistin] 0.761
CC(C)C(=O)OCC(=O)[C@@]12O[C@H](C3CCCCC3)O[C@@H]1C[C@H]1[C@@H]3CCC4=CC(=O)C=C[C@]4(C)[C@H]3[C@@H](O)C[C@@]12C [Ciclesonide] + CCC(C)CCCC(=O)N[C@@H](CCN)C(=O)N[C@H](C(=O)N[C@@H](CCN)C(=O)N[C@H]1CCNC(=O)[C@H]([C@@H](C)O)NC(=O)[C@H](CCN)NC(=O)[C@H](CCN)NC(=O)[C@H](CC(C)C)NC(=O)[C@@H](CC(C)C)NC(=O)[C@H](CCN)NC1=O)[C@@H](C)O [colistin] 0.966
CN(C)CCC=C1c2ccccc2CCc2ccccc21 [Amitriptyline hydrochloride] + CCC(C)CCCC(=O)N[C@@H](CCN)C(=O)N[C@H](C(=O)N[C@@H](CCN)C(=O)N[C@H]1CCNC(=O)[C@H]([C@@H](C)O)NC(=O)[C@H](CCN)NC(=O)[C@H](CCN)NC(=O)[C@H](CC(C)C)NC(=O)[C@@H](CC(C)C)NC(=O)[C@H](CCN)NC1=O)[C@@H](C)O [colistin] 1.04
COC(=O)[C@H](c1ccccc1Cl)N1CCc2sccc2C1 [Clopidogrel hydrogen sulfate] + CCC(C)CCCC(=O)N[C@@H](CCN)C(=O)N[C@H](C(=O)N[C@@H](CCN)C(=O)N[C@H]1CCNC(=O)[C@H]([C@@H](C)O)NC(=O)[C@H](CCN)NC(=O)[C@H](CCN)NC(=O)[C@H](CC(C)C)NC(=O)[C@@H](CC(C)C)NC(=O)[C@H](CCN)NC1=O)[C@@H](C)O [colistin] 0.888
CC(C)NCC(O)c1ccc(NS(C)(=O)=O)cc1 (centres undefined) [Sotalol hydrochloride] + CCC(C)CCCC(=O)N[C@@H](CCN)C(=O)N[C@H](C(=O)N[C@@H](CCN)C(=O)N[C@H]1CCNC(=O)[C@H]([C@@H](C)O)NC(=O)[C@H](CCN)NC(=O)[C@H](CCN)NC(=O)[C@H](CC(C)C)NC(=O)[C@@H](CC(C)C)NC(=O)[C@H](CCN)NC1=O)[C@@H](C)O [colistin] 1.09
Cn1c(=O)c2[nH]cnc2n(C)c1=O [Aminophylline] + CCC(C)CCCC(=O)N[C@@H](CCN)C(=O)N[C@H](C(=O)N[C@@H](CCN)C(=O)N[C@H]1CCNC(=O)[C@H]([C@@H](C)O)NC(=O)[C@H](CCN)NC(=O)[C@H](CCN)NC(=O)[C@H](CC(C)C)NC(=O)[C@@H](CC(C)C)NC(=O)[C@H](CCN)NC1=O)[C@@H](C)O [colistin] 1
OC[C@@H](O)[C@@H](O)[C@H](O)[C@@H](O)CO [D-Sorbitol] + CCC(C)CCCC(=O)N[C@@H](CCN)C(=O)N[C@H](C(=O)N[C@@H](CCN)C(=O)N[C@H]1CCNC(=O)[C@H]([C@@H](C)O)NC(=O)[C@H](CCN)NC(=O)[C@H](CCN)NC(=O)[C@H](CC(C)C)NC(=O)[C@@H](CC(C)C)NC(=O)[C@H](CCN)NC1=O)[C@@H](C)O [colistin] 0.712
C[C@]12CC[C@H](O)CC1=CC[C@@H]1[C@@H]2CC[C@]2(C)C(c3cccnc3)=CC[C@@H]12 [Abiraterone] + CCC(C)CCCC(=O)N[C@@H](CCN)C(=O)N[C@H](C(=O)N[C@@H](CCN)C(=O)N[C@H]1CCNC(=O)[C@H]([C@@H](C)O)NC(=O)[C@H](CCN)NC(=O)[C@H](CCN)NC(=O)[C@H](CC(C)C)NC(=O)[C@@H](CC(C)C)NC(=O)[C@H](CCN)NC1=O)[C@@H](C)O [colistin] 1.08
CCCCS(=O)(=O)N[C@@H](Cc1ccc(OCCCCC2CCNCC2)cc1)C(=O)O [Tirofiban hydrochloride monohydrate] + CCC(C)CCCC(=O)N[C@@H](CCN)C(=O)N[C@H](C(=O)N[C@@H](CCN)C(=O)N[C@H]1CCNC(=O)[C@H]([C@@H](C)O)NC(=O)[C@H](CCN)NC(=O)[C@H](CCN)NC(=O)[C@H](CC(C)C)NC(=O)[C@@H](CC(C)C)NC(=O)[C@H](CCN)NC1=O)[C@@H](C)O [colistin] 1.06
CCC[C@H](N[C@@H](C)C(=O)N1[C@H](C(=O)O)C[C@@H]2CCCC[C@@H]21)C(=O)OCC [Perindopril erbumine] + CCC(C)CCCC(=O)N[C@@H](CCN)C(=O)N[C@H](C(=O)N[C@@H](CCN)C(=O)N[C@H]1CCNC(=O)[C@H]([C@@H](C)O)NC(=O)[C@H](CCN)NC(=O)[C@H](CCN)NC(=O)[C@H](CC(C)C)NC(=O)[C@@H](CC(C)C)NC(=O)[C@H](CCN)NC1=O)[C@@H](C)O [colistin] 1.02
COc1ccc([C@@H]2Sc3ccccc3N(CCN(C)C)C(=O)[C@@H]2OC(C)=O)cc1 [Diltiazem hydrochloride] + CCC(C)CCCC(=O)N[C@@H](CCN)C(=O)N[C@H](C(=O)N[C@@H](CCN)C(=O)N[C@H]1CCNC(=O)[C@H]([C@@H](C)O)NC(=O)[C@H](CCN)NC(=O)[C@H](CCN)NC(=O)[C@H](CC(C)C)NC(=O)[C@@H](CC(C)C)NC(=O)[C@H](CCN)NC1=O)[C@@H](C)O [colistin] 0.935
CC(C)c1nc(CN(C)C(=O)N[C@H](C(=O)N[C@@H](Cc2ccccc2)C[C@H](O)[C@H](Cc2ccccc2)NC(=O)OCc2cncs2)C(C)C)cs1 [Ritonavir] + CCC(C)CCCC(=O)N[C@@H](CCN)C(=O)N[C@H](C(=O)N[C@@H](CCN)C(=O)N[C@H]1CCNC(=O)[C@H]([C@@H](C)O)NC(=O)[C@H](CCN)NC(=O)[C@H](CCN)NC(=O)[C@H](CC(C)C)NC(=O)[C@@H](CC(C)C)NC(=O)[C@H](CCN)NC1=O)[C@@H](C)O [colistin] 0.914
COC(=O)N[C@H](C(=O)N[C@@H](Cc1ccccc1)[C@@H](O)CN(Cc1ccc(-c2ccccn2)cc1)NC(=O)[C@@H](NC(=O)OC)C(C)(C)C)C(C)(C)C [Atazanavir sulfate] + CCC(C)CCCC(=O)N[C@@H](CCN)C(=O)N[C@H](C(=O)N[C@@H](CCN)C(=O)N[C@H]1CCNC(=O)[C@H]([C@@H](C)O)NC(=O)[C@H](CCN)NC(=O)[C@H](CCN)NC(=O)[C@H](CC(C)C)NC(=O)[C@@H](CC(C)C)NC(=O)[C@H](CCN)NC1=O)[C@@H](C)O [colistin] 1.16
COc1ccccc1OCC(O)CO (centres undefined) [Guaifenesin] + CCC(C)CCCC(=O)N[C@@H](CCN)C(=O)N[C@H](C(=O)N[C@@H](CCN)C(=O)N[C@H]1CCNC(=O)[C@H]([C@@H](C)O)NC(=O)[C@H](CCN)NC(=O)[C@H](CCN)NC(=O)[C@H](CC(C)C)NC(=O)[C@@H](CC(C)C)NC(=O)[C@H](CCN)NC1=O)[C@@H](C)O [colistin] 0.944
Nc1ccc(C(=O)O)c(O)c1 [4-Aminosalicylic acid] + CCC(C)CCCC(=O)N[C@@H](CCN)C(=O)N[C@H](C(=O)N[C@@H](CCN)C(=O)N[C@H]1CCNC(=O)[C@H]([C@@H](C)O)NC(=O)[C@H](CCN)NC(=O)[C@H](CCN)NC(=O)[C@H](CC(C)C)NC(=O)[C@@H](CC(C)C)NC(=O)[C@H](CCN)NC1=O)[C@@H](C)O [colistin] 0.87
CN(C)C(=N)NC(=N)N [Metformin hydrochloride] + CCC(C)CCCC(=O)N[C@@H](CCN)C(=O)N[C@H](C(=O)N[C@@H](CCN)C(=O)N[C@H]1CCNC(=O)[C@H]([C@@H](C)O)NC(=O)[C@H](CCN)NC(=O)[C@H](CCN)NC(=O)[C@H](CC(C)C)NC(=O)[C@@H](CC(C)C)NC(=O)[C@H](CCN)NC1=O)[C@@H](C)O [colistin] 0.787

As a short view, some entries already given.
OD600, inactive:
COc1ccc([C@@H]2Sc3ccccc3N(CCN(C)C)C(=O)[C@@H]2OC(C)=O)cc1 [Diltiazem hydrochloride] + CCC(C)CCCC(=O)N[C@@H](CCN)C(=O)N[C@H](C(=O)N[C@@H](CCN)C(=O)N[C@H]1CCNC(=O)[C@H]([C@@H](C)O)NC(=O)[C@H](CCN)NC(=O)[C@H](CCN)NC(=O)[C@H](CC(C)C)NC(=O)[C@@H](CC(C)C)NC(=O)[C@H](CCN)NC1=O)[C@@H](C)O [colistin] 0.935
CC(C)c1nc(CN(C)C(=O)N[C@H](C(=O)N[C@@H](Cc2ccccc2)C[C@H](O)[C@H](Cc2ccccc2)NC(=O)OCc2cncs2)C(C)C)cs1 [Ritonavir] + CCC(C)CCCC(=O)N[C@@H](CCN)C(=O)N[C@H](C(=O)N[C@@H](CCN)C(=O)N[C@H]1CCNC(=O)[C@H]([C@@H](C)O)NC(=O)[C@H](CCN)NC(=O)[C@H](CCN)NC(=O)[C@H](CC(C)C)NC(=O)[C@@H](CC(C)C)NC(=O)[C@H](CCN)NC1=O)[C@@H](C)O [colistin] 0.914

— the supplement of paper PMC11546906
